Measurements from US8957184B2, “Pro-apoptotic peptides” (priority 2009, dated 2015).
At least one peptide structure holds a part that was inferred or is arguable (an end, a ring closure or a residue). Ends that are not written are not given here.

The chains behind the UniProt entries cited, without tags or fusion partners.
UniProt P63330, whole entry: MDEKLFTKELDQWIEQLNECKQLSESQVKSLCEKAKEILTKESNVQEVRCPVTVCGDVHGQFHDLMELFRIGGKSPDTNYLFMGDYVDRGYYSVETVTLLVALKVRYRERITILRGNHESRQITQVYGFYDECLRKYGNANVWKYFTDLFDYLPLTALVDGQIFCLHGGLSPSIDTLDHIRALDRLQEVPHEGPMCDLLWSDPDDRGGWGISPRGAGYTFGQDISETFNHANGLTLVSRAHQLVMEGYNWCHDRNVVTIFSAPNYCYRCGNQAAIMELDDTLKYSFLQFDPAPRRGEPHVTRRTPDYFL
UniProt P62137, whole entry: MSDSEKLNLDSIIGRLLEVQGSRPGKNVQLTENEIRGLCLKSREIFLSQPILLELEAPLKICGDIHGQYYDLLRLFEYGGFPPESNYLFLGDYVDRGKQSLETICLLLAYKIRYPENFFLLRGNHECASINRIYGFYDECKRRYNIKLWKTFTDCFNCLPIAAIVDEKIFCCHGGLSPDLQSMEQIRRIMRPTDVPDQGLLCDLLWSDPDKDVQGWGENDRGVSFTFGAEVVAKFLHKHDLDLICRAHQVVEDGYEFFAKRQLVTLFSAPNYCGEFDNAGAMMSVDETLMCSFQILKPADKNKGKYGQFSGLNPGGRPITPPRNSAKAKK

Assays:
[1] = target: T1, PP2Ac (Mus musculus, UniProt P63330); experiment: Pull down assay of biotinylated peptides with TS1αβ cell extracts, immunoblot for PP2Ac; type: binding, murine; settings: extracts from IL-2-stimulated TS1αβ cells; FIG. 1
T1 construct: 10^7 exponentially growing TS1αβ cells were first washed twice with PBS and then lysed 10 minutes on ice; endogenous in cells; host or cells: TS1αβ murine T cell line (IL-2-stimulated), cell lysate

[2] = target: T2, PP1c (Mus musculus, UniProt P62137); experiment: Pull down assay of biotinylated peptides with TS1αβ cell extracts, immunoblot for PP1c; type: binding, murine; settings: extracts from IL-2-stimulated TS1αβ cells; FIG. 1
T2 construct: 10^7 exponentially growing TS1αβ cells were first washed twice with PBS and then lysed 10 minutes on ice; endogenous in cells; host or cells: TS1αβ murine T cell line (IL-2-stimulated), cell lysate

[3] = target: T3, caspase-9 (Mus musculus, UniProt Q8C3Q9); experiment: Pull down assay of biotinylated peptides with TS1αβ cell extracts, caspase-9; type: binding, murine; settings: data not shown
T3 construct: 10^7 exponentially growing TS1αβ cells were first washed twice with PBS and then lysed 10 minutes on ice; endogenous in cells; host or cells: TS1αβ murine T cell line (IL-2-stimulated), cell lysate
T3 sequence (Q8C3Q9 1-454): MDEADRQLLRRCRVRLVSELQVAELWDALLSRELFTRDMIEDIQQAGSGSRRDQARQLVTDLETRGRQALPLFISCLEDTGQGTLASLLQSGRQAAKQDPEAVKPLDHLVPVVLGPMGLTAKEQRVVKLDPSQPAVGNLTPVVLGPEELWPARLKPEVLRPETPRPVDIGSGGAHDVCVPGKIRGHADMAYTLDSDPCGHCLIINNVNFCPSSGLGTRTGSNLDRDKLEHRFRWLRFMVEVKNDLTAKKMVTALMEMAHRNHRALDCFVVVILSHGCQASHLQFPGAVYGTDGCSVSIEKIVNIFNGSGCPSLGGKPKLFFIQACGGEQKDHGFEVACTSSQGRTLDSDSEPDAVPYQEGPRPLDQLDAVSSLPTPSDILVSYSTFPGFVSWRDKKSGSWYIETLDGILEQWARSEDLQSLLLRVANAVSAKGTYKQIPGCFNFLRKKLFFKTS

[4] = system: TS1αβ cells; experiment: Cell death assay (Annexin V/PI flow cytometry), TS1αβ; type: cell-based, murine; settings: TS1αβ cells in presence of IL-2, 150 μM peptide; FIG. 2

| Sequence | interaction with PP2Ac (pull-down) [1] | presence of PP1c associated to peptide (pull-down) [2] | presence of caspase-9 associated to peptide (pull-down) [3] | increase of apoptosis [4] |
| --- | --- | --- | --- | --- |
| YIETLDGILEQWARSEDL [C9, YIETLDGILEQWARSEDL, reference compound] | clearly interact | did not detect | did not detect |  |
| VKKKKIKREIKIYIETLDGILEQWARSEDL [DPT-C9, VKKKKIKREIKI-YIETLDGILEQWARSEDL] | clearly interact | did not detect | did not detect | 6 fold |
